Publication PMC4860851 (Cell Discovery, 2015)
Results are given in words; binding and its absence hold for the method and conditions named. Some binding calls cover weakened binding; strength is not graded here.

Target: HA of human influenza virus A/Puerto Rico/8/34 H1N1 (PR8), on the virus and on PR8-treated EL4 cells (influenza A/Puerto Rico/8/34 H1N1 (PR8)) (UniProt P03452)
Assay: flow cytometry on cells; only the binder purified

Ncr1 N139 216 238A Ig (from UniProt Q8C567 17-255) (Fc fusion)
binding: binds

biotinylated Ncr1 Ig (from UniProt Q8C567 17-255) (Fc fusion)
binding: binds
